Measurements taken from article PMC8608314.
Results are given in words; binding and its absence hold for the method and conditions named. Binding calls can cover weak binding; strength is not graded here. Sequences can lack the tags named with a protein. For some assays here: Binding seen in cells or lysates may run through a third protein.

Sequences of proteins named here, by UniProt entry; tags and fusion partners are left off. A change or cut given only in a name is not applied to a line headed by its entry.
UniProt Q38DR9: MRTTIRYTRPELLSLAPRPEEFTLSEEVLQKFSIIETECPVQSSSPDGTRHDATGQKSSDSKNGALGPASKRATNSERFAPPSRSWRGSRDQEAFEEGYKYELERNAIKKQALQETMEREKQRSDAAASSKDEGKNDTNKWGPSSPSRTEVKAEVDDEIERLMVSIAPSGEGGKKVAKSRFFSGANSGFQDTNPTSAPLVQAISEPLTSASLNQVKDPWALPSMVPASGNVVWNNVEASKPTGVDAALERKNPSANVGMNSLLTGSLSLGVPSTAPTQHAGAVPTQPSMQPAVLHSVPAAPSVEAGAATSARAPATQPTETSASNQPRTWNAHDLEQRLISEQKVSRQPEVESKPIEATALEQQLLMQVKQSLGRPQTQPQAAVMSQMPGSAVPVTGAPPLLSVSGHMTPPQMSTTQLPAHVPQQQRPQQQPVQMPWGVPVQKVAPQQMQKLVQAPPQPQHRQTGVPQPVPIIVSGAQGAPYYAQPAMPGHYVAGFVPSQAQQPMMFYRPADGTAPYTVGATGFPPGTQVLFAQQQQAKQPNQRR

Legend:
[1] = molecular target: T1, TUT3 two-hybrid fusion (Trypanosoma brucei) (UniProt Q6B9Y8); assay: two-hybrid; Matchmaker Yeast Two-Hybrid System (Clontech), pGBKT7 and pGADT7 plasmids co-transformed pairwise into AH109; growth on plates lacking Trp, Leu, His and Ade indicates interaction
T1 sequence: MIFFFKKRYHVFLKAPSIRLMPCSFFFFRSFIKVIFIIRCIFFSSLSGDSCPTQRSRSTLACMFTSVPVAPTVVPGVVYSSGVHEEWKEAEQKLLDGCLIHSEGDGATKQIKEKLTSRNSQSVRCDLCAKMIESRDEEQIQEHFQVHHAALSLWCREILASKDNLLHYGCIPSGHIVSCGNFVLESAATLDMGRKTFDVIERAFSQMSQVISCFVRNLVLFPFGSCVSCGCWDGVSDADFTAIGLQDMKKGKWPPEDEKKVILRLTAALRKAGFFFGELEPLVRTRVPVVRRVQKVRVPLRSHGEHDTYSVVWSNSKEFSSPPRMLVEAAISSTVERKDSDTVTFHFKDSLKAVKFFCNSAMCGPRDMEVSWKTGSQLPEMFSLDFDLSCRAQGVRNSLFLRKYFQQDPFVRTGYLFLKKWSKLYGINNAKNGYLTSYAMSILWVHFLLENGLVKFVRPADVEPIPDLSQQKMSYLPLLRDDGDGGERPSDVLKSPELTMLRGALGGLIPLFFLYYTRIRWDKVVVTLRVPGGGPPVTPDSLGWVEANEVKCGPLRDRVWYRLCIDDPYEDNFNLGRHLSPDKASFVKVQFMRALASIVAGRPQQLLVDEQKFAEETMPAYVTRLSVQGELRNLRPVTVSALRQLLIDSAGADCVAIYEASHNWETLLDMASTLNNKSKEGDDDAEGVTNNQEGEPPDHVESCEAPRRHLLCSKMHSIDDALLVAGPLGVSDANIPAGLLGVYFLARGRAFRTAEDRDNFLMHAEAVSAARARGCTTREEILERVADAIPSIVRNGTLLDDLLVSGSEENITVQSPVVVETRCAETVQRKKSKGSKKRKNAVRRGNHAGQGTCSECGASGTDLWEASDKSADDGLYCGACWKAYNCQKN

[2] = molecular target: T2, TUT3-myc (Trypanosoma brucei) (UniProt Q6B9Y8); assay: co-IP; bloodstream forms; pull-down of V5-tagged 4EIP with blot for TUT3-myc, and pull-down of myc-tagged TUT3 with blot for 4EIP-V5; in absence or presence of RNase A
T2 sequence: T1 sequence

[3] = molecular target: V5-tagged 4EIP (Trypanosoma brucei) (UniProt Q38DR9); assay: as above
[4] = molecular target: 4EIP two-hybrid fusion (Trypanosoma brucei) (UniProt Q38DR9); assay: two-hybrid; Matchmaker Yeast Two-Hybrid System (Clontech), pGBKT7 and pGADT7 plasmids co-transformed pairwise into AH109; growth on plates lacking Trp, Leu, His and Ade indicates interaction

Molecule: 4EIP two-hybrid fusion (from UniProt Q38DR9)
- binding [1]: binds

Molecule: T. brucei homolog of Dis3L2, two-hybrid fusion (Trypanosoma brucei) (enzyme)
- binding [1]: no binding

Molecule: V5-tagged 4EIP (from UniProt Q38DR9)
- binding [2]: binds

B1: TUT3-myc (enzyme, UniProt Q6B9Y8 1-889)
chain: T1 sequence
- binding [3]: binds

B2: TUT3 two-hybrid fusion (enzyme, UniProt Q6B9Y8 1-889)
chain: T1 sequence
- binding [4]: binds
